According to PMC8481267:
Results are given in words; binding and its absence hold for the method and conditions named. Binding seen in cells or lysates may run through a third protein. Here binding means that the protein was enriched with, or labelled near, the bait; the list need not be complete.

Amino acid sequences for entries named in this document (tags omitted).
UniProt Q9Y572: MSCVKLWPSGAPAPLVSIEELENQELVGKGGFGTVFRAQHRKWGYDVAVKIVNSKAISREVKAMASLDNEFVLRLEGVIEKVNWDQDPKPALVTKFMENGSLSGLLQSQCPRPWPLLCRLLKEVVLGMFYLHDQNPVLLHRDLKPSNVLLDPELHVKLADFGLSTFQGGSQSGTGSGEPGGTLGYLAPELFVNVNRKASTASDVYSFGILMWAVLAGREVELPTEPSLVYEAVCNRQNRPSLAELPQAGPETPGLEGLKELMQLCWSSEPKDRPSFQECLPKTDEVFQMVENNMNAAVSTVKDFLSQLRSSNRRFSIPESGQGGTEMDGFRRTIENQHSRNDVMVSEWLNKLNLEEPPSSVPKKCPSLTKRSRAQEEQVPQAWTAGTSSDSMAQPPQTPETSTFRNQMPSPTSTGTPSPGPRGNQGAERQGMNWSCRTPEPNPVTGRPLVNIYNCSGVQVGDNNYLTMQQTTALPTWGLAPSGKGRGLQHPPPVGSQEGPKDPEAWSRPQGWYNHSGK
UniProt Q14258: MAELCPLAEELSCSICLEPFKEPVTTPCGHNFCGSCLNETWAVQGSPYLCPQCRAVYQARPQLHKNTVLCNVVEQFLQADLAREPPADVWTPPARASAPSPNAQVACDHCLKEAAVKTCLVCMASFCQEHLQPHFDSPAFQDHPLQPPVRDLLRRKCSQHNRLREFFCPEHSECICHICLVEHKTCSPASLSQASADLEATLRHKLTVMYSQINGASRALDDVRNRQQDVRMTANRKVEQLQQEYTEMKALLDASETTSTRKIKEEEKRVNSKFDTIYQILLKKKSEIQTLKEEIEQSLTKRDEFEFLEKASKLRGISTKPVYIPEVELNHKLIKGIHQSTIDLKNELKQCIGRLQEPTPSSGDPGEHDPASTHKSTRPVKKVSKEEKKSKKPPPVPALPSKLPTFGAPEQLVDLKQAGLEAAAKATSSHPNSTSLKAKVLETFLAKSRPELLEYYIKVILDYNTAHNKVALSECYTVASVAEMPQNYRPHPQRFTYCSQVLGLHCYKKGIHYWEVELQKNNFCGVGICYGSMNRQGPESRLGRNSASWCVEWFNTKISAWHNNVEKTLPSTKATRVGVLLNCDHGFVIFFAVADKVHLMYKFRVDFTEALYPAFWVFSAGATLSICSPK

Biological target: human RIP3 overexpressed for mass spectrometry (human) (UniProt Q9Y572)
Assay: affinity purification with mass spectrometry; human RIP3 overexpressed in HeLa and HEK293T cells, immunoprecipitation with an anti-RIP3 antibody, high-sensitivity mass spectrometry

binding: binds
Substance: endogenous TRIM25 (from UniProt Q14258 1-630)
